Construct, isoform or probe ends are uncertain for at least one entry. Where cells or extracts were used, other partners may take part. For some assays here: A weaker result is weaker than the reference pair of the same experiment.
Assays:
FoxM1 [1] = target: FoxM1 (UniProt Q08050); experiment: EMSA; settings: extract of cells not treated with SLPI, binding substantially lower than with SLPI; Thermo Fisher EMSA kit per manufacturer; antibody 1 h on ice; pH not stated; protein in an extract; label: biotin end label
FoxM1 [2] = target: FoxM1 (UniProt Q08050); experiment: EMSA supershift; settings: extract of SLPI-treated cells, FoxM1 antibody, blocked by unlabeled FoxM1 oligo; Thermo Fisher EMSA kit per manufacturer; antibody 1 h on ice; pH not stated; protein in an extract; label: biotin end label

By UniProt entry, the sequences of proteins in these tests, tags left out. Where a name states a change or a piece, a line headed by the entry shows the natural chain unless it says otherwise.
UniProt Q08050: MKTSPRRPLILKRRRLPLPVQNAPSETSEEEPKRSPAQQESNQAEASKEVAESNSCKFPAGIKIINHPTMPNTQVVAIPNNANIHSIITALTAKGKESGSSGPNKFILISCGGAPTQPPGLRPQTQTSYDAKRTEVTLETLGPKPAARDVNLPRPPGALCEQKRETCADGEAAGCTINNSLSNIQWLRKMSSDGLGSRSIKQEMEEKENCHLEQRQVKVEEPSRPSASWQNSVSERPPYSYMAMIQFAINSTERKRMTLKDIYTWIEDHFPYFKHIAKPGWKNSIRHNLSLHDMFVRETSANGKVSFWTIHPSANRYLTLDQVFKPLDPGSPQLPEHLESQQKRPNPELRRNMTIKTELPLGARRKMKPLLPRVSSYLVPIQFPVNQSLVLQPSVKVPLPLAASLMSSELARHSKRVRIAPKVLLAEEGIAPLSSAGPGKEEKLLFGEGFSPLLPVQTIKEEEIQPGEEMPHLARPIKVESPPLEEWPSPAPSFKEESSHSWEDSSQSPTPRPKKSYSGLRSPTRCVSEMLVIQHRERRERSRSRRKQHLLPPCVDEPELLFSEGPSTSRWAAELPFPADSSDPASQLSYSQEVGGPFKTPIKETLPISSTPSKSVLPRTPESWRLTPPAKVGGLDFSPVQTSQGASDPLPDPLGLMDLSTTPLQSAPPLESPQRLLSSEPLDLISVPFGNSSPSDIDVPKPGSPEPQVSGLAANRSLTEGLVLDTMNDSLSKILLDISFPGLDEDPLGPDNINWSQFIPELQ

Sequence: CTGTTCAAGATGGAGTCGCTCTGGTTC (double strand) [MMP2 promoter FoxM1 site probe]
- binding result (FoxM1 [1]): binds more weakly
- binding result (FoxM1 [2]): binds

From article PMC5752445, “Secretory leukocyte protease inhibitor (SLPI) as a potential target for inhibiting metastasis of triple-negative breast cancers” (Oncotarget, 2017)
